Measurements reported in PubChem BioAssay AID1224829 (NIAID, 2016)
Screen: 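Secondary check of hits that alter LPS-induced p65 translocation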 (follow-up of hits). Cell system: mouse RAW264.7 G9 macrophage reporter cells. Reagent: single siRNA against mouse genes, 100 nM. Duration: 2 days of siRNA knock-down, then 40 min of LPS before fixing. Challenge: LPS (Salmonella minnesota R595) at 10 ng/ml. Measured: 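High-content images after 40 min LPS exposure; GFP-p65 nucleus to surrounding ring signal ratio, normalised to plate median and non-targeting control wells, expressed as z-score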. Scale: p65 translocation z-score and gene median z-score, per vendor: higher = more nuclear NF-kappaB p65 after LPS. Call rule: 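An siRNA is called active when the mean z-score of its two replicates is above 2 or below -2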. Calls: active = changed p65 translocation (either direction); inactive = no clear change.
In all, the deposit lists about 3,800 reagents; shown is an unselected part. 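Calls cover raised and lowered translocation; gene median uses one vendor's three siRNAs; qiagen siRNAs acted more weakly than ambion siRNAs.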 A number with no mark means an inactive call. Reagents against one gene are numbered here.

Gene | reagent no. | siRNA vendor or control pool | p65 translocation z-score, replicate mean | p65 translocation z-score, replicate 1 | p65 translocation z-score, replicate 2 | gene median z-score, per vendor
Dlx6 (distal-less homeobox 6) | 1 | qiagen single siRNA | 1.92 | 0.354 | 3.49 | 0.4
Dlx6 (distal-less homeobox 6) | 2 | qiagen single siRNA | 1.69 | 0.446 | 2.94 | 0.4
Dlx6 (distal-less homeobox 6) | 3 | qiagen single siRNA | -3.29 (active) | -3.47 | -3.1 | 0.4
Csf2ra | 1 | ambion single siRNA | -3.83 (active) | -4.34 | -3.32 | 0.18
Csf2ra | 2 | ambion single siRNA | 0.18 | 1.04 | -0.682 | 0.18
Csf2ra | 3 | ambion single siRNA | 2.67 (active) | 3.28 | 2.06 | 0.18
Csf2ra | 4 | qiagen single siRNA | 1.49 | 1.02 | 1.96 | 1.09
Csf2ra | 5 | qiagen single siRNA | -0.452 | -2.06 | 1.16 | 1.09
Csf2ra | 6 | qiagen single siRNA | 0.642 | 1.21 | 0.0779 | 1.09
Ybey (ybeY metallopeptidase) | 1 | ambion single siRNA | 4.8 (active) | 6.2 | 3.4 | -0.184
Ybey (ybeY metallopeptidase) | 2 | ambion single siRNA | -2.21 (active) | -2.03 | -2.4 | -0.184
Ybey (ybeY metallopeptidase) | 3 | ambion single siRNA | -0.184 | -0.184 | – | -0.184
Ybey (ybeY metallopeptidase) | 4 | qiagen single siRNA | 2.52 (active) | 2.77 | 2.28 | 2.09
Ybey (ybeY metallopeptidase) | 5 | qiagen single siRNA | 2.09 (active) | 1.99 | 2.19 | 2.09
Ybey (ybeY metallopeptidase) | 6 | qiagen single siRNA | 1.57 | 1.5 | 1.64 | 2.09
Pura (purine rich element binding protein A) | 1 | ambion single siRNA | -6.38 (active) | -7.51 | -5.24 | -4.52
Pura (purine rich element binding protein A) | 2 | ambion single siRNA | -4.65 (active) | -5.5 | -3.8 | -4.52
Pura (purine rich element binding protein A) | 3 | ambion single siRNA | -1.9 | -2.41 | -1.4 | -4.52
Pura (purine rich element binding protein A) | 4 | qiagen single siRNA | -0.165 | 0.291 | -0.62 | -0.844
Pura (purine rich element binding protein A) | 5 | qiagen single siRNA | 0.0735 | -1.07 | 1.22 | -0.844
Pura (purine rich element binding protein A) | 6 | qiagen single siRNA | -3.37 (active) | -3.84 | -2.91 | -0.844
Nav1 (neuron navigator 1) | 1 | ambion single siRNA | 1.95 | 2.59 | 1.3 | 0.599
Nav1 (neuron navigator 1) | 2 | ambion single siRNA | 0.599 | 1.19 | 0.00955 | 0.599
Nav1 (neuron navigator 1) | 3 | ambion single siRNA | -3.83 (active) | -2.73 | -4.94 | 0.599
Nav1 (neuron navigator 1) | 4 | qiagen single siRNA | 2.22 (active) | 2.33 | 2.11 | -0.509
Nav1 (neuron navigator 1) | 5 | qiagen single siRNA | -0.925 | -0.168 | -1.68 | -0.509
Nav1 (neuron navigator 1) | 6 | qiagen single siRNA | -2.2 (active) | -0.85 | -3.55 | -0.509
Fstl4 (follistatin-like 4) | 1 | ambion single siRNA | -0.577 | -0.713 | -0.44 | -1.84
Fstl4 (follistatin-like 4) | 2 | ambion single siRNA | -1.84 | -2.08 | -1.59 | -1.84
Fstl4 (follistatin-like 4) | 3 | ambion single siRNA | -3.87 (active) | -3.75 | -3.99 | -1.84
Fstl4 (follistatin-like 4) | 4 | qiagen single siRNA | -0.439 | -0.517 | -0.36 | 1.67
Fstl4 (follistatin-like 4) | 5 | qiagen single siRNA | 4.72 (active) | 3.5 | 5.94 | 1.67
Fstl4 (follistatin-like 4) | 6 | qiagen single siRNA | 1.67 | 1.78 | 1.55 | 1.67
Nr1d1 (nuclear receptor subfamily 1, group D, member 1) | 1 | ambion single siRNA | -5.95 (active) | -6.6 | -5.3 | -4.12
Nr1d1 (nuclear receptor subfamily 1, group D, member 1) | 2 | ambion single siRNA | -1.22 | -0.665 | -1.77 | -4.12
Nr1d1 (nuclear receptor subfamily 1, group D, member 1) | 3 | ambion single siRNA | -4.12 (active) | -5.02 | -3.22 | -4.12
Nr1d1 (nuclear receptor subfamily 1, group D, member 1) | 4 | qiagen single siRNA | -0.781 | -0.462 | -1.1 | -1.05
Nr1d1 (nuclear receptor subfamily 1, group D, member 1) | 5 | qiagen single siRNA | -3.94 (active) | -1.56 | -6.33 | -1.05
Nr1d1 (nuclear receptor subfamily 1, group D, member 1) | 6 | qiagen single siRNA | -0.829 | -0.656 | -1 | -1.05
Or8g24 (olfactory receptor family 8 subfamily G member 24) | 1 | ambion single siRNA | -0.972 | -0.284 | -1.66 | -2.91
Or8g24 (olfactory receptor family 8 subfamily G member 24) | 2 | ambion single siRNA | -2.9 (active) | -4.16 | -1.64 | -2.91
Or8g24 (olfactory receptor family 8 subfamily G member 24) | 3 | ambion single siRNA | -6.68 (active) | -7.1 | -6.25 | -2.91
Or8g24 (olfactory receptor family 8 subfamily G member 24) | 4 | qiagen single siRNA | -0.806 | -0.797 | -0.816 | -0.211
Or8g24 (olfactory receptor family 8 subfamily G member 24) | 5 | qiagen single siRNA | 1.05 | -0.573 | 2.68 | -0.211
Or8g24 (olfactory receptor family 8 subfamily G member 24) | 6 | qiagen single siRNA | 0.241 | 0.33 | 0.151 | -0.211
Trav13-5 (T cell receptor alpha variable 13-5) | 1 | ambion single siRNA | 2.72 (active) | 3.73 | 1.7 | 1.3
Trav13-5 (T cell receptor alpha variable 13-5) | 2 | ambion single siRNA | 1.31 | 1.71 | 0.9 | 1.3
Trav13-5 (T cell receptor alpha variable 13-5) | 3 | ambion single siRNA | -2.37 (active) | -3.02 | -1.72 | 1.3
Trav13-5 (T cell receptor alpha variable 13-5) | 4 | qiagen single siRNA | 0.237 | -0.698 | 1.17 | -0.619
Trav13-5 (T cell receptor alpha variable 13-5) | 5 | qiagen single siRNA | -0.394 | -0.394 | – | -0.619
Trav13-5 (T cell receptor alpha variable 13-5) | 6 | qiagen single siRNA | -0.744 | -0.87 | -0.619 | -0.619

3 successive records from above, for reference:
Gene | reagent no. | siRNA vendor or control pool | p65 translocation z-score, replicate mean | p65 translocation z-score, replicate 1 | p65 translocation z-score, replicate 2 | gene median z-score, per vendor
Ybey (ybeY metallopeptidase) | 3 | ambion single siRNA | -0.184 | -0.184 | – | -0.184
Ybey (ybeY metallopeptidase) | 4 | qiagen single siRNA | 2.52 (active) | 2.77 | 2.28 | 2.09
Ybey (ybeY metallopeptidase) | 5 | qiagen single siRNA | 2.09 (active) | 1.99 | 2.19 | 2.09
